# The other results are listed elsewhere or left out. For some assays here: Construct or isoform of the protein are uncertain.
# Amino acid sequences for entries named in this document (tags omitted). A change or cut given only in a name is not applied to a line headed by its entry.
# UniProt Q9Y617: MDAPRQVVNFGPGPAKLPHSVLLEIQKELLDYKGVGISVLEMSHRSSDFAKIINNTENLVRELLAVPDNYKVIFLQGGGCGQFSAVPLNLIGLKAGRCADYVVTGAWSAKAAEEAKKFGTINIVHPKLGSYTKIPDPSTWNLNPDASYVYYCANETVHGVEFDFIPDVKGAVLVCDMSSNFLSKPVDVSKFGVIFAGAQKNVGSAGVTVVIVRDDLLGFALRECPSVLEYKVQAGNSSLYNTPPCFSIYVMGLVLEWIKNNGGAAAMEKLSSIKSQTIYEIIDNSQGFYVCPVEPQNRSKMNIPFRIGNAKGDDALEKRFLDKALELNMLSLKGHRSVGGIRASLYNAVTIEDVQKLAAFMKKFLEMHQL
# Legend:
# Experiment in all cases: protein microarray (ProtoArray v5.0), streptavidin-Alexa Fluor 647
# Conditions in all cases: 3'-biotin; 20 mM Tris (pH 7.5), 5 mM MgCl2, 100 mM KCl, 0.1% Tween-20, A/T-rich and random oligonucleotide blockers; temperature not stated; high values mean tight binding
# PRCP (human) = system: PRCP (human)
# PRDX2 (human) = system: PRDX2 (human)
# PRDX3 (human) = system: PRDX3 (human)
# [1] = system: PRELI domain-containing protein 2 (human)
# PRKACB (human) = system: PRKACB (human)
# PRKRIR (human) = system: PRKRIR (human)
# PRMT7 (human) = system: PRMT7 (human)
# PROCR (human) = system: PROCR (human)
# PRPSAP2 (human) = system: PRPSAP2 (human)
# PRRG2 = target: T1, PRRG2 (UniProt O14669)
# T1 sequence: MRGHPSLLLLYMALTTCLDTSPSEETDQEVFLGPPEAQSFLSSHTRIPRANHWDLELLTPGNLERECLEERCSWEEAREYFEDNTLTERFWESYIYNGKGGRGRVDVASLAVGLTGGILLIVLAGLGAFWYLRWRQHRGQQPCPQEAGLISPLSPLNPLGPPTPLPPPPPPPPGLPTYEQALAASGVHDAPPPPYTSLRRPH
# PRRT2 (human) = system: PRRT2 (human)
# PSAT1 = PSAT1 (UniProt Q9Y617)
# PSCD2 = target: T2, PSCD2 (UniProt Q99418)
# T2 sequence: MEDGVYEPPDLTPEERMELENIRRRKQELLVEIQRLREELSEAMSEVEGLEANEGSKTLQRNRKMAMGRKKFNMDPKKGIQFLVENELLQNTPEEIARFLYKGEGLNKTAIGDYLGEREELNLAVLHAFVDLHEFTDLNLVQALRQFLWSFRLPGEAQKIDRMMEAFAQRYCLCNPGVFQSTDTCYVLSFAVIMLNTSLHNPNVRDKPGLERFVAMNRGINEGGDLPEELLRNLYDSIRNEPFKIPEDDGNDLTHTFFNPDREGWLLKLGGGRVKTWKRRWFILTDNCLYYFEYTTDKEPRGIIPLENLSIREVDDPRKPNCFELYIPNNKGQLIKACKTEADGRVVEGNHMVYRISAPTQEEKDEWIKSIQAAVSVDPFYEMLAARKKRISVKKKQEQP
# PSCD4 (human) = system: PSCD4 (human)
# PSG11 (human) = system: PSG11 (human)
# PSIP1 (human) = system: PSIP1 (human)
# PSMA4 (human) = system: PSMA4 (human)
# PSMD10 (human) = system: PSMD10 (human)
# PSMD11 (human) = system: PSMD11 (human)
# PSMD5 (human) = system: PSMD5 (human)
sequence,measurement,setting,value
GGGGACAGGGGTATGGGGAGGGG [G4-3 biotinylated (CtG)],binding signal,PRCP (human),-0.327 z-score
same,binding signal,PRDX2 (human),-0.338 z-score
same,binding signal,PRDX3 (human),-0.332 z-score
same,binding signal,[1],-0.312 z-score
same,binding signal,PRKACB (human),-0.303 z-score
same,binding signal,PRKRIR (human),-0.303 z-score
same,binding signal,PRMT7 (human),-0.335 z-score
same,binding signal,PROCR (human),-0.312 z-score
same,binding signal,PRPSAP2 (human),-0.318 z-score
same,binding signal,PRRG2,-0.336 z-score
same,binding signal,PRRT2 (human),-0.324 z-score
same,binding signal,PSAT1,-0.334 z-score
same,binding signal,PSCD2,-0.324 z-score
same,binding signal,PSCD4 (human),-0.309 z-score
same,binding signal,PSG11 (human),-0.331 z-score
same,binding signal,PSIP1 (human),-0.33 z-score
same,binding signal,PSMA4 (human),-0.333 z-score
same,binding signal,PSMD10 (human),-0.327 z-score
same,binding signal,PSMD11 (human),-0.33 z-score
same,binding signal,PSMD5 (human),-0.34 z-score

# Some of the entries above, set out differently:
sequence	measurement	setting	value
GGGGACAGGGGTATGGGGAGGGG [G4-3 biotinylated (CtG)]	binding signal	PSAT1	-0.334 z-score
same	binding signal	PSCD2	-0.324 z-score
same	binding signal	PSCD4 (human)	-0.309 z-score

# Source: article PMC5996148
